US6462173B1, “Inhibitors of phosphoserine and phosphothreonine-proline-specific isomerases” (Max-Planck-Gesellschaft zur Forderung der, priority 1997, dated 2002)
No constants are given. Whether binding was seen depends on the method and setting. Binding seen in cells or lysates may run through a third protein. Some binding calls cover weakened binding; strength is not graded here.

Chains of the proteins cited; added tags and fusions are not shown.
UniProt Q13526: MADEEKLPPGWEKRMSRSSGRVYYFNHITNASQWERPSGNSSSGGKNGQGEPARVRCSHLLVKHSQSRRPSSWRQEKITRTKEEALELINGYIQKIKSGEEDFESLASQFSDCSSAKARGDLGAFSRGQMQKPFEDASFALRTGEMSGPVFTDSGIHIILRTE

Target: T1, Mos (Xenopus, in vitro translated), incubated in mitotic extract (Xenopus) (UniProt P12965)
T1 sequence (phosphorylated by incubation in mitotic Xenopus extract; sites not stated, looked up): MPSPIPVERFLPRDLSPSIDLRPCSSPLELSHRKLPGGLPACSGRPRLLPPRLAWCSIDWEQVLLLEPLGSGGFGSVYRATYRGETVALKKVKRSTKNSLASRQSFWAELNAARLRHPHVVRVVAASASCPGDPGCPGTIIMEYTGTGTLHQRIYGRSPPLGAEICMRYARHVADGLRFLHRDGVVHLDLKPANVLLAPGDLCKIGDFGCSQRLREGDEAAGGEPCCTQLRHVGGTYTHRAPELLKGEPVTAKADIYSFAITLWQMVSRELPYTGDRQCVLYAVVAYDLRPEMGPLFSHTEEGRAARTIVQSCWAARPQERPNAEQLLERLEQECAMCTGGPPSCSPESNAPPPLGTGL
Assay: GST-Pin1 bead pull-down of in vitro translated protein incubated in mitotic Xenopus extract

- binding: binds
Substance: GST-Pin1 (glutathione-S-transferase fusion protein containing full length Pin1) (from UniProt Q13526 1-163) (enzyme)
